{"source": "PubChem BioAssay AID1053208 (Peter MacCallum Cancer Centre, 2014)", "screen": "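Synthetic lethal interactions between gene loss and doxorubicin in osteosarcoma cells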 (primary screen)", "system": "mouse osteosarcoma cells, early-passage culture from an engineered mouse model of fibroblastic bone tumour", "reagents": "siRNA pool against mouse genes, 40 nM", "timing": "about 120 h (48 h before drug, then 72 h with drug)", "challenge": "doxorubicin 100 nM for 72 h, roughly 30-40% inhibitory dose", "detection": "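Viability read as ATP luminescence after 72 h of 100 nM doxorubicin or none, duplicate wells averaged, scaled to non-targeting siRNA, then expressed as robust z-scores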", "reading the numbers": "viability z-score with doxorubicin: higher = more viable cells under doxorubicin; viability z-score without drug: higher = more viable cells with knock-down alone", "call rule": "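a pool counts as active when its viability z-score with doxorubicin is -2 or below and its z-score without drug lies between -2 and 2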", "note": "Here is one part, drawn at random, of about 17,000 reagents tested. In the full data, 788 (4.7%) got an active call. 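Calls rest on z-score classes alone; an extra cut-off of viability at most 70% of control was not applied to them.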 Further read-outs or replicates are left out here."}
The opening 2 records, to show the layout:
{"Target gene": "Pax8", "PubChem SID": "SID152272189", "combined z-score class": "no change with or without drug", "viability z-score with doxorubicin": 0.56, "viability z-score without drug": -0.17, "outcome": "inactive"}
{"Target gene": "Zfp768", "PubChem SID": "SID152336746", "combined z-score class": "high cell count without drug only", "viability z-score with doxorubicin": 1.12, "viability z-score without drug": 2.19, "outcome": "inactive"}

Results, from the start:
{"Target gene": "Pax8", "PubChem SID": "SID152272189", "combined z-score class": "no change with or without drug", "viability z-score with doxorubicin": 0.56, "viability z-score without drug": -0.17, "outcome": "inactive"}
{"Target gene": "Zfp768", "PubChem SID": "SID152336746", "combined z-score class": "high cell count without drug only", "viability z-score with doxorubicin": 1.12, "viability z-score without drug": 2.19, "outcome": "inactive"}
{"Target gene": "Actrt2", "PubChem SID": "SID152259945", "combined z-score class": "no change with or without drug", "viability z-score with doxorubicin": 0.9, "viability z-score without drug": -0.17, "outcome": "inactive"}
{"Target gene": "Samd5", "PubChem SID": "SID152268960", "combined z-score class": "low cell count with and without drug", "viability z-score with doxorubicin": -2.47, "viability z-score without drug": -2.53, "outcome": "inactive"}
{"Target gene": "Trem2", "PubChem SID": "SID152287825", "combined z-score class": "no change with or without drug", "viability z-score with doxorubicin": -0.9, "viability z-score without drug": -0.17, "outcome": "inactive"}
{"Target gene": "Tfip11", "PubChem SID": "SID152283261", "combined z-score class": "no change with or without drug", "viability z-score with doxorubicin": 0.56, "viability z-score without drug": -0.34, "outcome": "inactive"}
{"Target gene": "R3hcc1l", "PubChem SID": "SID152306561", "combined z-score class": "no change with or without drug", "viability z-score with doxorubicin": 0.67, "viability z-score without drug": 0.67, "outcome": "inactive"}
{"Target gene": "Scgb2b27", "PubChem SID": "SID152263248", "combined z-score class": "no change with or without drug", "viability z-score with doxorubicin": -0.56, "viability z-score without drug": -0.17, "outcome": "inactive"}
{"Target gene": "Golga7", "PubChem SID": "SID152304743", "combined z-score class": "no change with or without drug", "viability z-score with doxorubicin": 0.67, "viability z-score without drug": 0.84, "outcome": "inactive"}
{"Target gene": "Bex2", "PubChem SID": "SID152338419", "combined z-score class": "no change with or without drug", "viability z-score with doxorubicin": 0, "viability z-score without drug": -1.52, "outcome": "inactive"}
{"Target gene": "Dqx1", "PubChem SID": "SID152275972", "combined z-score class": "no change with or without drug", "viability z-score with doxorubicin": 0.45, "viability z-score without drug": 0.67, "outcome": "inactive"}
{"Target gene": "Cntrob", "PubChem SID": "SID152287316", "combined z-score class": "no change with or without drug", "viability z-score with doxorubicin": -0.67, "viability z-score without drug": 0.17, "outcome": "inactive"}
{"Target gene": "Mcm4", "PubChem SID": "SID152325326", "combined z-score class": "no change with or without drug", "viability z-score with doxorubicin": 1.24, "viability z-score without drug": 0.84, "outcome": "inactive"}
{"Target gene": "Enah", "PubChem SID": "SID152290889", "combined z-score class": "no change with or without drug", "viability z-score with doxorubicin": -0.34, "viability z-score without drug": -0.84, "outcome": "inactive"}
{"Target gene": "Aup1", "PubChem SID": "SID152291836", "combined z-score class": "no change with or without drug", "viability z-score with doxorubicin": 0, "viability z-score without drug": 1.18, "outcome": "inactive"}
{"Target gene": "Mis12", "PubChem SID": "SID152278773", "combined z-score class": "high cell count with doxorubicin only", "viability z-score with doxorubicin": 2.81, "viability z-score without drug": 1.18, "outcome": "inactive"}
{"Target gene": "Vmn1r220", "PubChem SID": "SID152321784", "combined z-score class": "high cell count with and without drug", "viability z-score with doxorubicin": 3.93, "viability z-score without drug": 2.87, "outcome": "inactive"}
{"Target gene": "Rin3", "PubChem SID": "SID152298977", "combined z-score class": "no change with or without drug", "viability z-score with doxorubicin": -0.22, "viability z-score without drug": -0.17, "outcome": "inactive"}
{"Target gene": "Zscan29", "PubChem SID": "SID152321427", "combined z-score class": "no change with or without drug", "viability z-score with doxorubicin": 0.11, "viability z-score without drug": -0.51, "outcome": "inactive"}
